Measurements reported in PubChem BioAssay AID1259308 (NCATS, 2017)
The deposit covers about 59,000 reagents; shown is a part drawn at random. About 1,510 of them (2.6%) were called active. 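Calls use total luciferase alone and ignore viability, so some active siRNAs may act by altering cell number.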 Reagents against one gene are numbered here. Not all columns of the deposit are shown. No sequences are given here.

Screen: 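Genes whose loss raises luciferase production in HEK293 cells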 (primary screen)
System: human HEK293 embryonic kidney cells stably expressing firefly luciferase (HEK-CMV-Luc2-Hygro)
Knock-down reagent: single siRNA against human genes, 0.8 pmol siRNA per well
Duration: 72 h
Measured: 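Reporter luminescence and viable-cell signal on separate replicate plates, given as percent of non-targeting control and median/MAD z-scores, plus per-cell luciferase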
Reading the numbers: total luciferase, z-score: higher = more reporter protein produced
Rule for the call: 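An siRNA counts as active if its total luciferase robust z-score exceeds 3; genes with two or more such siRNAs out of three were retested with fresh siRNAs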
Calls: active = raised luciferase; inactive = no rise

SCGB1D4 #1 | total luciferase, z-score: 1.44; Call: inactive
SCGB1D4 #2 | total luciferase, z-score: 0.134; Call: inactive
SCGB1D4 #3 | total luciferase, z-score: 0.155; Call: inactive
ANKRD45 #1 | total luciferase, z-score: -0.832; Call: inactive
ANKRD45 #2 | total luciferase, z-score: 0.756; Call: inactive
ANKRD45 #3 | total luciferase, z-score: 0.145; Call: inactive
ISG20 #1 | total luciferase, z-score: -0.874; Call: inactive
ISG20 #2 | total luciferase, z-score: 0.24; Call: inactive
ISG20 #3 | total luciferase, z-score: 0.397; Call: inactive
VSTM2B #1 | total luciferase, z-score: 0.842; Call: inactive
VSTM2B #2 | total luciferase, z-score: -1.34; Call: inactive
VSTM2B #3 | total luciferase, z-score: 1.81; Call: inactive
CHIT1 #1 | total luciferase, z-score: -1.06; Call: inactive
CHIT1 #2 | total luciferase, z-score: -1.95; Call: inactive
CHIT1 #3 | total luciferase, z-score: 1.33; Call: inactive
SMARCAD1 #1 | total luciferase, z-score: 0.786; Call: inactive
SMARCAD1 #2 | total luciferase, z-score: -1.48; Call: inactive
SMARCAD1 #3 | total luciferase, z-score: 0.886; Call: inactive
XTBD1 #1 | total luciferase, z-score: -0.576; Call: inactive
XTBD1 #2 | total luciferase, z-score: -0.43; Call: inactive
XTBD1 #3 | total luciferase, z-score: -1.19; Call: inactive
BIN1 #1 | total luciferase, z-score: 1.38; Call: inactive
BIN1 #2 | total luciferase, z-score: -1.31; Call: inactive
BIN1 #3 | total luciferase, z-score: -0.791; Call: inactive
RPL15 #1 | total luciferase, z-score: -0.0595; Call: inactive
RPL15 #2 | total luciferase, z-score: 0.499; Call: inactive
RPL15 #3 | total luciferase, z-score: 0.434; Call: inactive
GDF9 #1 | total luciferase, z-score: 0.942; Call: inactive
GDF9 #2 | total luciferase, z-score: -0.827; Call: inactive
GDF9 #3 | total luciferase, z-score: 2.65; Call: inactive
ADRA1B #1 | total luciferase, z-score: 0.805; Call: inactive
ADRA1B #2 | total luciferase, z-score: -0.743; Call: inactive
ADRA1B #3 | total luciferase, z-score: -0.0258; Call: inactive
CDK7 #1 | total luciferase, z-score: -0.957; Call: inactive
CDK7 #2 | total luciferase, z-score: -1.09; Call: inactive
CDK7 #3 | total luciferase, z-score: -1.02; Call: inactive
CLDN5 #1 | total luciferase, z-score: 0.624; Call: inactive
CLDN5 #2 | total luciferase, z-score: -0.108; Call: inactive
CLDN5 #3 | total luciferase, z-score: 3.64; Call: active
ZNF589 #1 | total luciferase, z-score: 0.265; Call: inactive
ZNF589 #2 | total luciferase, z-score: -0.325; Call: inactive
ZNF589 #3 | total luciferase, z-score: -1.38; Call: inactive
